The values below come from PMC7892343.

Chains of the proteins cited; added tags and fusions are not shown. Lines headed by an entry give the natural chain unless they say otherwise; changes in a name come on top. A line that says so, or that is headed by a name, gives the form on record, which may keep a tag or linker. Residues count along the entry.
Flag-PRMT1 catalytic domain (truncated mutant 32-343 aa) (Q99873, residues 50-361): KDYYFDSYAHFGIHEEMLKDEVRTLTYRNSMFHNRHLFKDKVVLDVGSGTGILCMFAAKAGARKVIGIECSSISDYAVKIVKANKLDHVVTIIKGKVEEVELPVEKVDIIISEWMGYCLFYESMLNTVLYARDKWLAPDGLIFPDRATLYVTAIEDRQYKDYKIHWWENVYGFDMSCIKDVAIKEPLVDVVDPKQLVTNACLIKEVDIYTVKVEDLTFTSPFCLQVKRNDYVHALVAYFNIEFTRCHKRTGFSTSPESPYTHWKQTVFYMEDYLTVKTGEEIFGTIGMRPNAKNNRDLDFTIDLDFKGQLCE
Flag-PRMT1 (protein arginine methyltransferase 1) (Q99873-3, form named): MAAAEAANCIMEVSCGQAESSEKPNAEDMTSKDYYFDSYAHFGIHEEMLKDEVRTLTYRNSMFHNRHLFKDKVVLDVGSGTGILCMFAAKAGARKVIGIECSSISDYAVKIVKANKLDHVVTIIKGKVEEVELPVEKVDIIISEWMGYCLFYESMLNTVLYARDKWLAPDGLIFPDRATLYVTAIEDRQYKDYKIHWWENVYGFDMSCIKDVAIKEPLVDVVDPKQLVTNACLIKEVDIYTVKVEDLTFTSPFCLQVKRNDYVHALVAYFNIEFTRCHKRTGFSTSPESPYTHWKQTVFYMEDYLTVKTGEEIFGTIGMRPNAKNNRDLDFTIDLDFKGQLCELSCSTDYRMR

Results are given in words; binding and its absence hold for the method and conditions named. In cells and extracts the contact can be indirect. Some results given as binding are weak or reduced against the parent protein; the word gives no strength. For some assays here: Tags and fused reporters may be left off the sequences shown.

Experiment [1] has as its target T1, Myc-NONO (non-POU domain-containing octamer-binding protein) (human) (UniProt Q15233).
T1 sequence: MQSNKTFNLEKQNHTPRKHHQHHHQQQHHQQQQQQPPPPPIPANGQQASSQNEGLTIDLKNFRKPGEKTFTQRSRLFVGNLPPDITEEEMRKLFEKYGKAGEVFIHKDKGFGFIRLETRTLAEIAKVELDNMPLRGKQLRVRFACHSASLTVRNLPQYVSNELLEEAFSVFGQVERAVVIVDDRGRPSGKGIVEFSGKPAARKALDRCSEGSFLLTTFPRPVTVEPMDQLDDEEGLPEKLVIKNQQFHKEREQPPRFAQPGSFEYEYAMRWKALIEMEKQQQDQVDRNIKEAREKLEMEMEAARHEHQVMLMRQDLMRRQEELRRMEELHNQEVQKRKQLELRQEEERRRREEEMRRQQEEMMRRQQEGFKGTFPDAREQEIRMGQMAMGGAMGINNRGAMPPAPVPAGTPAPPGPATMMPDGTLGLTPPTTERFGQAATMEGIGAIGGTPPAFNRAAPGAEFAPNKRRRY
Description: co-IP; HEK 293T cells cotransfected with Myc-NONO and Flag-PRMT1 (or Flag-PRMT1 truncations) for 24 h; RIPA lysis buffer (150 mM NaCl, 50 mM Tris-HCl pH 7.4, 1% Nonidet P-40, 1 mM EDTA); anti-Flag or anti-Myc magnetic beads, 2-4 h at 4 °C; western blotting. On the technique in general: A western blot detects proteins with antibodies after separation by electrophoresis.

The target in experiment [2] is T2, NONO, endogenous in KM12 and HCT8 colorectal cancer cells (human (endogenous in KM12 and HCT8)) (UniProt Q15233).
T2 sequence: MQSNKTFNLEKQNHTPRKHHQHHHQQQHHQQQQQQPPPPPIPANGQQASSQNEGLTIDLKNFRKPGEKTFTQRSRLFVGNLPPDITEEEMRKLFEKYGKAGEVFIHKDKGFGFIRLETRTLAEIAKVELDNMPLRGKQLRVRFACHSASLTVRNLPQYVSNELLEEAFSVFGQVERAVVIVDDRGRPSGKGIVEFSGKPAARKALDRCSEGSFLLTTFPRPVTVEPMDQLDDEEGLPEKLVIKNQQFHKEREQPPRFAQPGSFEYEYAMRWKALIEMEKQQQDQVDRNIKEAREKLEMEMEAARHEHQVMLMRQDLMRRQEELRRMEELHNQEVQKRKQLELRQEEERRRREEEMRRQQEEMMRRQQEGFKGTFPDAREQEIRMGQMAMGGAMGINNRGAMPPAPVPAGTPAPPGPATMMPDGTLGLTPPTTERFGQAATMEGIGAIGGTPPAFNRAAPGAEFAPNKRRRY
Nature of the experiment: co-IP; endogenous proteins, KM12 and HCT8 cell lysates (RIPA buffer); anti-NONO or anti-PRMT1 antibody or isotype-matched IgG overnight at 4 °C, Dynabeads Protein G; western blotting.

Experiment [3] has as its target T2, NONO, endogenous in KM12 and HCT8 colorectal cancer cells (human (endogenous in KM12 and HCT8)). Description: proximity ligation; Duolink PLA on fixed KM12 and HCT8 cells with anti-NONO and anti-PRMT1 primary antibodies; blank without primary antibody; confocal microscopy.
For experiment [4], the target named is Flag-PRMT1 (protein arginine methyltransferase 1) (human) (UniProt Q99873). Description: co-IP; HEK 293T cells cotransfected with Myc-NONO and Flag-PRMT1 (or Flag-PRMT1 truncations) for 24 h; RIPA lysis buffer (150 mM NaCl, 50 mM Tris-HCl pH 7.4, 1% Nonidet P-40, 1 mM EDTA); anti-Flag or anti-Myc magnetic beads, 2-4 h at 4 °C; western blotting.
The target in experiment [5] is Flag-PRMT1 catalytic domain (truncated mutant 32-343 aa) (human) (UniProt Q99873). The description is as above.

On to “Flag-PRMT1 (protein arginine methyltransferase 1) (from UniProt Q99873-3 1-353) (enzyme)”, for which the binding result in experiment [1] was “binds”.

Consider “PRMT1, endogenous in KM12 and HCT8 colorectal cancer cells (from UniProt Q99873-3 1-353) (enzyme)”, for which the binding entry in experiment [2] and in experiment [3] was “binds” throughout.

B1: Myc-NONO (non-POU domain-containing octamer-binding protein) (protein, UniProt Q15233 1-471)
chain: MQSNKTFNLEKQNHTPRKHHQHHHQQQHHQQQQQQPPPPPIPANGQQASSQNEGLTIDLKNFRKPGEKTFTQRSRLFVGNLPPDITEEEMRKLFEKYGKAGEVFIHKDKGFGFIRLETRTLAEIAKVELDNMPLRGKQLRVRFACHSASLTVRNLPQYVSNELLEEAFSVFGQVERAVVIVDDRGRPSGKGIVEFSGKPAARKALDRCSEGSFLLTTFPRPVTVEPMDQLDDEEGLPEKLVIKNQQFHKEREQPPRFAQPGSFEYEYAMRWKALIEMEKQQQDQVDRNIKEAREKLEMEMEAARHEHQVMLMRQDLMRRQEELRRMEELHNQEVQKRKQLELRQEEERRRREEEMRRQQEEMMRRQQEGFKGTFPDAREQEIRMGQMAMGGAMGINNRGAMPPAPVPAGTPAPPGPATMMPDGTLGLTPPTTERFGQAATMEGIGAIGGTPPAFNRAAPGAEFAPNKRRRY
Take B1: the binding entry in experiment [4] and in experiment [5] was “binds” in each case.
